# ± gives the standard deviation. This is a selection; strong and weak results do not stand in their true shares. Many of these values have a large error.
# Test system: MILI (PIWIL2) piRISC loaded with L1MC piRNA (26 nt)
# Assay: pre-steady-state target cleavage rate (min^-1); MIWI and MILI are mouse PIWI proteins and EfPiwi is from a freshwater sponge; tags in brackets are library labels; higher = faster piRNA-guided slicing of the target
# Conditions: guide: L1MC piRNA 5'p-UAACUAAAUACUAUGCAAGCUGUAGG; auxiliary factor: 500 nM mouse GTSF1
# Procedure: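 Cleave-'n-Seq: a library of target RNAs (target site embedded in constant flanks, ACAGCATTCCGCGTTAGTGATATCCG... 5' flank; DNA-blocked outside the site) at 0.1 nM was incubated with 1 nM active mouse MILI or MIWI piRISC (synthetic 5'-monophosphorylated piRNA guide) with or without 500 nM mouse GTSF1 at 33 °C for 1 min to 16 h. Uncleaved targets were sequenced and normalised to non-target controls, and the pooled three trials were fitted to a burst-and-steady-state model to give the pre-steady-state cleavage rate (min^-1; k3 is constrained to at most 1e-4). Sequence is the target site only; target names encode pairing extent (gX:gY) and contiguous / 1-mismatch / 2-mismatch / bulge geometry. Fits with R² ≤ 0 are excluded.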
row,Sequence,pre-steady-state target cleavage rate
1,UCCUGGUUGUGCUUGCAUAGUAUUUACAAA,0.00786 ± 0.0048
2,UCCUGGAUGUCGAACCUUAGUUUUUAGUUA,0.000308 ± 0.02
3,UCCUGGAUGUCGAACCAUAGUAAUUUGUUA,0.000389 ± 0.018
4,UCCUGGUACAGCUAGCAUAGUUUUUAGUUA,0.0495 ± 0.011
5,UCCUGCUACAGCUUGCAUGAGUAUUUAGUUA,0.0058 ± 0.0041
6,UCCUGGAUUAGCUUGCAUAGUAUUUAGUUA,0.232 ± 0.016
7,UCCUGGAACUCCUUGCAUAGUAUUUAGAAA,0.162 ± 0.029
8,UCCUGGAUGUCCUUGCCAUAGUAUUUAGUUA,0.00783 ± 0.0048
9,UCCUGGAAGAGCUUCCAUAGUAUUUAGUUA,0.297 ± 0.085
10,UCCUGGAUGUGCUUGCAUAGUAUUUAUUA,0.00911 ± 0.0051
11,UCCUGGAUCAGCUUCCAUAGUAUUUAGUAA,0.0353 ± 0.0094
12,UCCUGGAUGUCGAUGCAUUGUAUUUAGUUA,0.0091 ± 0.0037
13,UCCUGGAUGUCGUUGAAUAGUAUUUAGUUA,0.0817 ± 0.015
14,UCCUGGAUGAGCUUGCGAUAGUAUUUAGUUA,0.00167 ± 0.0057
15,UCCUCCUACAGCUAGCAUAGUAUUUAGUUA,0.27 ± 0.019

# Same assay, conditions: guide: L1MC piRNA 5'p-UAACUAAAUACUAUGCAAGCUGUAGG; auxiliary factor: none (no GTSF1)
row,Sequence,pre-steady-state target cleavage rate
1,UCCUGGUUGUGCUUGCAUAGUAUUUACAAA,0.00124 ± 0.0058
2,UCCUGGAUGUCGAACCUUAGUUUUUAGUUA,0.000109 ± 0.015
3,UCCUGGAUCAGCUUGGUAAGUAUUUACAAA,0.00059 ± 0.0088
4,UCCUGGUACAGCUAGCAUAGUUUUUAGUUA,0.00928 ± 0.0026
5,UCCUGCUACAGCUUGCAUAGUAUAAACAAA,0.000636 ± 0.0086
6,UCCUGCUACAGCUUGCAUGAGUAUUUAGUUA,0.00173 ± 0.0033
7,UCCUGGAUUAGCUUGCAUAGUAUUUAGUUA,0.00961 ± 0.0024
8,UCCUCCUACAGCUUGCAUUCAAUUUACAAA,0.000509 ± 0.0075
9,UCCUGGAACUCCUUGCAUAGUAUUUAGAAA,0.0016 ± 0.0034
10,UCCUGGAUGUCCUUGCCAUAGUAUUUAGUUA,0.00102 ± 0.0072
11,UCCUGGAAGAGCUUCCAUAGUAUUUAGUUA,0.00136 ± 0.0042
12,UCCUGCUACAGCUUGCAUAGUAUUUACAUA,0.00222 ± 0.0037
13,UCCUGGAUGUGCUUGCAUAGUAUUUAUUA,0.00103 ± 0.0067
14,UCCUGGAACAGCUUGCAUAGUUAUUAGAAA,0.000957 ± 0.0063
15,UCCUGGAUCAGCUUCCAUAGUAUUUAGUAA,0.00139 ± 0.0049
16,UCCUCCUACAGCUUGCAUACUUUUUAGUUA,0.00203 ± 0.0031
17,UCCUGGAUGUCGAUGCAUUGUAUUUAGUUA,0.00226 ± 0.0025
18,UCCUGGAUGUCCUUGCAUACUAAUUAGUUA,0.00135 ± 0.0046
19,UCCUGGAUGUCGAAGCAUAGUAUUUAUUUA,0.000444 ± 0.01
20,UCCUGGAUGUCGUUGAAUAGUAUUUAGUUA,0.0047 ± 0.0024
21,UCCUGGAACAGCAUGCAUAGUAUUUUGUUA,0.00229 ± 0.003
22,UCCUGGAUGUGCAAGCAUAGUAUUUAGUAA,0.00263 ± 0.0029
23,UCCUGGAUGAGCUUGCAUACAUUUUACAAA,0.000197 ± 0.031
24,UCCUGGAUGAGCUUGCGAUAGUAUUUAGUUA,0.000219 ± 0.013
25,UCCUCCUACAGCUAGCAUAGUAUUUAGUUA,0.00812 ± 0.0022
